Results from PubChem BioAssay AID1508600 (Functional Genomics Laboratory (NCATS/FGL), 2020).
Out of some 53,000 sequences screened, about 3,700 (7%) were called active.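 The calls were made as follows: active = gene knockdowns whose robust z-score for IL-1 alpha signal is at least 2 or at most -2, so actives lie on both sides; inactive = the rest.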 Some of the results follow.

Assay: Components of the Cytosolic LPS Sensing Pathway: Gene Identification via Genome-wide siRNA Screen;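 also: robust z of the log signal after scaling to non-targeting control siRNA wells of the plate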
Conditions: RAW264.7 macrophages, IL-1a HTRF, actives lie on both sides, screened at 100 nM (by protocol), cells primed 5 h with Pam3CSK4 first
How it was run: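 RAW264.7 mouse macrophages reverse-transfected with single siRNAs (100 nM final) for 48h, primed with Pam3CSK4 for 5 hours, then transfected with LipidA for 24 hour. Supernatant IL-1a read by HTRF; values normalized to negative-control median, log-transformed robust z-scores.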

Sequence | z-score
GCUAAGAUUCCUUCCAGUATT against Adm2 | inactive: 0.98
CGAGUGAAUGACUUUAACATT against Ubn1 | inactive: 0.687
GGAGAAGAAUUAAAUGGAGTT against Rhox5 | inactive: -0.314
CCCAAUCAGCAAAGACGACTT against Trabd | inactive: -0.697
CCGACUCCUACAGAUUAUUTT against Slc35g3 | inactive: -0.489
GGAAGUUCAAGUGCUACUGTT against Zpbp2 | inactive: -2
AGGUAACAGUUCAACAGUATT against Olfr1039 | inactive: 0.332
GGGAGCAAGAGCUCUUUUCTT against Zxdc | inactive: 0.625
GGAGGACUGGGAAGAUCAUTT against Aqp5 | inactive: 0.152
GGUUAUUAAGACCCAGGUCTT against Tctex1d1 | inactive: -0.956
CCGUAACAAGGAUCAGGAATT against S100a6 | inactive: 0.422
GCAGUUAAGGACAAUCAUGTT against Fhdc1 | inactive: 1.32
CGAUGACAUCAGGAUUGUUTT against Adgrg7 | inactive: -0.124
GGGAUUCAGUAUAAAACACTT against Nup37 | inactive: -1.25
GCACUUUUCGGAACUAUAUTT against Rbp1 | inactive: -1.05
GGAACUGUAUUCAUUGAUGTT against Rnpepl1 | inactive: 0.195
CCUAUGUGUGUGAUCUUGATT against Nnmt | inactive: -0.0647
GGACGAACAGUAUUAUACUTT against Lhx5 | active: 2.11
CCAGCUUUUGUUUGUUAGATT against Trappc11 | inactive: 0.56
GCAACCUUAUGCUCUAUUUTT against Ythdf3 | inactive: 0.519
GGAGGUGAGAAAUACAGAGTT against Dbpht2 | inactive: -0.215
GGUUCCUGUGAAUUAUGUGTT against H2ap | inactive: 0.364
GCUAUAUGCUGAGUAUGACTT against Olfr777 | inactive: -1.07

Sequence | z-score
CGACAGAGGAAGGUAUUGGTT against Gcsh | active: -2.95
GGUCACCUACUAUCACAAGTT against Kcnh7 | inactive: -0.547
GAUAAUGGUCACUAAAUCUTT against Vmn1r4 | inactive: -1.65
GUGUUCAAUAUACUGGCAATT against Klra10 | inactive: 1.66
GGGUGUUAUUUUCUUCUAUTT against Stambp | inactive: -0.496
GGGUUUAGACCAAUCCCUCTT against Adamts15 | inactive: -0.441
CCAUAUUGAAACCUCAUUUTT against Fam126a | active: -2.33
GUCCUAGAGGAUCUGGAUGTT against Vmn1r210 | inactive: -1.44
GGAAACAGGAAACAAUCUATT against Ccdc69 | inactive: 0.609
CCAGGUGAAUUAAUAGUCUTT against Stk4 | inactive: 0.93
GGGAGAGCAGUUUGAAUGGTT against Usp27x | inactive: 1.13
GGGAAGAAUACUAUAGAUGTT against Slc12a2 | inactive: -0.137
UCGAGGACAGCAUGAACAGTT against Rims4 | inactive: -1.22
GCUACAUGAUGUUUGGCAATT against Med7 | inactive: 0.549
GCUACAAAUAUUCUUUGGCTT against Mmp20 | inactive: -1.46
GGGACUUAAGUGAAGUUCATT against Ogfod2 | inactive: 0.232
GGCUGUUAUCCAGAGAGAUTT against Nim1k | inactive: 0.177
GGACAUAAUCAAAUACAACTT against Eif3h | inactive: 0.00392
UCAACUCAAACUAUGUCGATT against Hoxb4 | inactive: -0.172
GGAAGACCUGAAGAAGGUGTT against Gck | inactive: -1.04
GGCGACAGACUUAUUAUUGTT against Prdx5 | inactive: -0.0257
GGAAACUAGAUCAUGAGAUTT against Rtkn | inactive: 0.105
GGCAUUCAGGAGGACUAGUTT against Lyz1 | inactive: -1.12

Sequence | z-score
GCUGGUUACAUGAAAUUAATT against Nup133 | inactive: -1
GAUCCAAGACAAGGAAGGCTT against Uba52 | inactive: 0.661
GGUUCAGAAGAGUCAGGAGTT against Dnajc14 | inactive: -0.091
GGAAUGAUUUUCUUAAGGATT against Ddr2 | inactive: 0.387
GAUUACGUUGGCCUGUCUCTT against Tff3 | inactive: -0.119
CCUUAAAGAACUAUCAUUGTT against Senp2 | inactive: -0.422
GGUUGGCUAGUCUGUCUGATT against Atp5h | inactive: 0.443
GGAAAAAGAUGCGACAAUGTT against A930012O16Rik | inactive: -1.01
CCAUGAAGAACAAGAAAACTT against 1700010D01Rik | inactive: 0.239
CCAAUGGUGAUCAAAGCGGTT against 8430429K09Rik | inactive: 0.175
GCCUUUCUCAUUAGUCUCUTT against Vmn1r41 | inactive: -0.397
CGCAUUUCAAGGGAAAAUUTT against Tubgcp3 | inactive: 0.772
GCUCAUCAAAACACUGACCTT against Heatr1 | inactive: 0.166
GGAAGACAUGGUUUUGAAGTT against Vmn1r-ps103 | inactive: -1.01
CCGUUUCUUUCCAUGAUAATT against Aak1 | inactive: -0.379
CCGCCUAGCUGAUCUUGUGTT against Aldh1b1 | inactive: -0.495
GCAGUCCAGUAAUUAAUUCTT against Havcr2 | inactive: 0.61
GGAAGAAUAUGCCAGAAUGTT against Stra8 | inactive: -0.294
GGACAUUCAUGGUGAUAGCTT against Sugp2 | inactive: -0.378
GGCAAACCUGAAGAAGUUCTT against Shank3 | inactive: -1.43
GGCAAAAUUAUGAAUGGCCTT against Rfk | inactive: -0.27
CCCUCAAGGAUUUAGCCAUTT against Zfp473 | inactive: 0.0264

3 entries drawn at random from those above, as already listed:
Sequence | z-score
CCGUUUCUUUCCAUGAUAATT against Aak1 | inactive: -0.379
GGCAAAAUUAUGAAUGGCCTT against Rfk | inactive: -0.27
GAUUACGUUGGCCUGUCUCTT against Tff3 | inactive: -0.119

An excerpt of the results above, as a working copy:
Sequence | z-score
GCUCAUCAAAACACUGACCTT against Heatr1 | inactive: 0.166
GGAAGACAUGGUUUUGAAGTT against Vmn1r-ps103 | inactive: -1.01
